{"source": "paper PMC7819943", "about": "“Rice protein-binding microarrays: a tool to detect cis-acting elements near promoter regions in rice”", "note": "This is one part of the list.", "data": [{"biological_target": "T1, OsSMF1 (Oryza sativa, UniProt Q6ZLB0 1-436)", "T1 sequence": "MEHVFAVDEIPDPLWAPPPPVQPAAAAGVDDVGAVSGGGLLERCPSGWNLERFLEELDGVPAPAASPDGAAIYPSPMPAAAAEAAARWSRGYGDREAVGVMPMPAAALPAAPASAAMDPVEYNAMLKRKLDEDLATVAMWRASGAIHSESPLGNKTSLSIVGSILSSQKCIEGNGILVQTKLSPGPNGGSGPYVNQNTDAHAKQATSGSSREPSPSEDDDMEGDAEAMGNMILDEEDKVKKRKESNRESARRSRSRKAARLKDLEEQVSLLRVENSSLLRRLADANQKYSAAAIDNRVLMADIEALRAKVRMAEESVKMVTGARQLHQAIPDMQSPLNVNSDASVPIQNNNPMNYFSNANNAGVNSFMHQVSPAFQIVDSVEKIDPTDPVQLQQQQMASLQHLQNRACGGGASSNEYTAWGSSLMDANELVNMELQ", "experiment": "protein-binding microarray (RPBM); PBS, 2% BSA, 51.3 ng/ul salmon testes DNA, 50 uM zinc acetate, 200 nM TF, 25 C, 1 h; high values mean tight binding", "conditions": "protein: recombinant; tags: N-terminal polyhistidine and DsRed monomer fusion (pET32a); chain copies: 2; label: CyDye5-dUTP incorporated in the synthesized complementary strand; 3' TTTTT single-stranded linker to array surface; dsDNA, one strand shown", "procedure,_shortened": "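The binding signal for each feature is its fluorescence intensity in arbitrary units. An Axon 4000B scanner was used to read a custom Agilent array that had been made double-stranded with Cy5-dUTP primer extension, blocked with 2% BSA, incubated at 25 °C for 1 h with 200 nM protein in PBS, 2% BSA, salmon testes DNA and 50 µM zinc acetate, and washed. The protein was an N-terminal polyhistidine–DsRed transcription factor fusion from E. coli BL21-CodonPlus, purified on Ni–NTA.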", "values": [{"sequence": "TCCCCTTCACCGCAACTTCGGCGAAGTCAAGAAGGAGTAGCGGAGTCACCTAGTGCAG", "binding signal": "43800 fluorescence intensity (a.u.)"}, {"sequence": "AGGACATGTTCACGGCCGGGACGGACACGTCGTCGATCATCGGAGTCACCTAGTGCAG", "binding signal": "6440 fluorescence intensity (a.u.)"}, {"sequence": "TATATTTACTCACATCATACCACATCAATGTTTGTAATAGCGGAGTCACCTAGTGCAG", "binding signal": "4260 fluorescence intensity (a.u.)"}, {"sequence": "TATCCTGATGACGGTGCATGTATGCATGCATGGATATGGACGGAGTCACCTAGTGCAG", "binding signal": "6130 fluorescence intensity (a.u.)"}, {"sequence": "GAGAGAAGGGGTGAGGAGAGTTTAGGGGTGGAGAGATTATCGGAGTCACCTAGTGCAG", "binding signal": "33900 fluorescence intensity (a.u.)"}, {"sequence": "CCACTCATCCAGCAACTGTTTCTCTGTGTACCGTTTCTCTCGGAGTCACCTAGTGCAG", "binding signal": "3170 fluorescence intensity (a.u.)"}, {"sequence": "GCGCTGCGGGCCGCGCGCGTCCACGCCACCGACCCGCACCCGGAGTCACCTAGTGCAG", "binding signal": "4090 fluorescence intensity (a.u.)"}, {"sequence": "CCAGAGGCAGCACACCATCCTGCCACGTGGCTACCCACCACGGAGTCACCTAGTGCAG", "binding signal": "30400 fluorescence intensity (a.u.)"}, {"sequence": "TGCAGAGCTCCTCTGCAAACTCATCGGCCACGTCAAGCCCCGGAGTCACCTAGTGCAG", "binding signal": "10400 fluorescence intensity (a.u.)"}, {"sequence": "TCTAGCAGTATAATTTGGCTCACTTACAGGCTTATACACACGGAGTCACCTAGTGCAG", "binding signal": "28200 fluorescence intensity (a.u.)"}, {"sequence": "GCGTTTCGGACACATTAAGGGCCCATTTGATTTGTAGGAACGGAGTCACCTAGTGCAG", "binding signal": "24700 fluorescence intensity (a.u.)"}, {"sequence": "CTAGTGAGGGGCGGGCGGGCGGGCAAGGGGAGCGGATGGGCGGAGTCACCTAGTGCAG", "binding signal": "5580 fluorescence intensity (a.u.)"}, {"sequence": "GCACCAACCATCTCACCCGTCCGACGTGGCAGCAGCAACCCGGAGTCACCTAGTGCAG", "binding signal": "5120 fluorescence intensity (a.u.)"}, {"sequence": "CACTTCAATGTACATGAATCTAAGCAAGCCAAATTTTCAACGGAGTCACCTAGTGCAG", "binding signal": "3360 fluorescence intensity (a.u.)"}, {"sequence": "TTGACGTCACACGTCAGGCTGGAGGTAATTCAACCAGTGCCGGAGTCACCTAGTGCAG", "binding signal": "9260 fluorescence intensity (a.u.)"}, {"sequence": "AATCAAATGCACATCATCAGTCATCACGTATTCACTTACACGGAGTCACCTAGTGCAG", "binding signal": "3510 fluorescence intensity (a.u.)"}, {"sequence": "GACAACACAGACTGTACGGAAATTGTTGGTGACATATCCCCGGAGTCACCTAGTGCAG", "binding signal": "3770 fluorescence intensity (a.u.)"}, {"sequence": "ATGCCGGGCATTTACAATGACTGAAAACGATTGCAAAATTCGGAGTCACCTAGTGCAG", "binding signal": "4670 fluorescence intensity (a.u.)"}, {"sequence": "ATCTAGCAGCAGCAGTGGTAGTAGCTAGCAGCGTCAGCGTCGGAGTCACCTAGTGCAG", "binding signal": "5190 fluorescence intensity (a.u.)"}, {"sequence": "GAGAGAGGTCCGTCGCTGCTCACGAGTCATGAGTAGGGTGCGGAGTCACCTAGTGCAG", "binding signal": "3450 fluorescence intensity (a.u.)"}, {"sequence": "TCTAAATGTAATGTCGCAAACTTATTTCATGGGCCAAGAACGGAGTCACCTAGTGCAG", "binding signal": "17900 fluorescence intensity (a.u.)"}, {"sequence": "TTGGAGACCGAGAGGAGGAACTGACCAGCCAGCGTCTGAACGGAGTCACCTAGTGCAG", "binding signal": "20800 fluorescence intensity (a.u.)"}, {"sequence": "ATGCTGCCATGTGGTCAGCTTTTGTCGATCGATTACTTGGCGGAGTCACCTAGTGCAG", "binding signal": "10100 fluorescence intensity (a.u.)"}, {"sequence": "TCTGCATCTGATGTACACGCAGATGAAGATGCGCCGGCACCGGAGTCACCTAGTGCAG", "binding signal": "3220 fluorescence intensity (a.u.)"}, {"sequence": "CCATGGAATGATGTGACATACTGACATGGCATCTATCTGCCGGAGTCACCTAGTGCAG", "binding signal": "5630 fluorescence intensity (a.u.)"}, {"sequence": "AGCTCTTCGCGGCAAAAGAGATCGCCGGCTCGCCGGCCGGCGGAGTCACCTAGTGCAG", "binding signal": "3820 fluorescence intensity (a.u.)"}, {"sequence": "ACTATGATATTGCAAACCGCGAGGTACTTGATTCATTACTCGGAGTCACCTAGTGCAG", "binding signal": "3140 fluorescence intensity (a.u.)"}, {"sequence": "ATTTAGCAACACATAATCAATCATCCACAGACTTGATTATCGGAGTCACCTAGTGCAG", "binding signal": "3400 fluorescence intensity (a.u.)"}, {"sequence": "AGCCACCATATCAAGCTGCCACCGTCACCTCCCTTGCCAGCGGAGTCACCTAGTGCAG", "binding signal": "6110 fluorescence intensity (a.u.)"}, {"sequence": "TGCTATAAATTTCCGTGATGCATACATTACGTCTGTTTCTCGGAGTCACCTAGTGCAG", "binding signal": "4120 fluorescence intensity (a.u.)"}, {"sequence": "CTTATCAAGCACATAATGTTGGAAAATTAAACAAGGAATCCGGAGTCACCTAGTGCAG", "binding signal": "29000 fluorescence intensity (a.u.)"}, {"sequence": "TCTGTGGGTTAGGGATGGTTATGTCTTATATTTTGGAATGCGGAGTCACCTAGTGCAG", "binding signal": "3680 fluorescence intensity (a.u.)"}, {"sequence": "TGTTCATTGGTGAAGTTGTTGTCATTTGGTGATTGGGTTGCGGAGTCACCTAGTGCAG", "binding signal": "4540 fluorescence intensity (a.u.)"}, {"sequence": "TTGACTTGGTGAGACAATGCTGGCGTGGCGTCCAATTAAACGGAGTCACCTAGTGCAG", "binding signal": "4920 fluorescence intensity (a.u.)"}, {"sequence": "TTCTCCCGTATCTGTAGAACGGCAGTAGCAAGTTGAAGAGCGGAGTCACCTAGTGCAG", "binding signal": "3380 fluorescence intensity (a.u.)"}, {"sequence": "ACATAATATTATGAAAACATTATTACTGAAAACCTAGATGCGGAGTCACCTAGTGCAG", "binding signal": "32400 fluorescence intensity (a.u.)"}, {"sequence": "CGGGGTTATGTGTCACGTGTCAAAATGTGTGGTTTTGTACCGGAGTCACCTAGTGCAG", "binding signal": "8900 fluorescence intensity (a.u.)"}, {"sequence": "TGGGTACCGTCGCGTTCTTCTTTCCCCTAGCTAGGTCTCGCGGAGTCACCTAGTGCAG", "binding signal": "4000 fluorescence intensity (a.u.)"}, {"sequence": "ATCCAATCGATCACCAACCTCCGATTTCGACATGCCCCGACGGAGTCACCTAGTGCAG", "binding signal": "3180 fluorescence intensity (a.u.)"}, {"sequence": "GGTTCGCCGGGTTTGGAGGAGGTGACGCAACGGCTCCGGCCGGAGTCACCTAGTGCAG", "binding signal": "5720 fluorescence intensity (a.u.)"}, {"sequence": "TCCCCACTCGCAGTGTAGTTACTCAATGAGGTGTTGCACCCGGAGTCACCTAGTGCAG", "binding signal": "3290 fluorescence intensity (a.u.)"}, {"sequence": "CTGAGATGATTTTGTTCATGCATGAAGTCCTTTCTGAAGTCGGAGTCACCTAGTGCAG", "binding signal": "3490 fluorescence intensity (a.u.)"}]}]}
